According to PMC7819943, “Rice protein-binding microarrays: a tool to detect cis-acting elements near promoter regions in rice”:
This is one part of the list.

Protein sequences, listed by entry. Tags and fused reporters are not part of them.
UniProt Q0JBA9, entry or part of it: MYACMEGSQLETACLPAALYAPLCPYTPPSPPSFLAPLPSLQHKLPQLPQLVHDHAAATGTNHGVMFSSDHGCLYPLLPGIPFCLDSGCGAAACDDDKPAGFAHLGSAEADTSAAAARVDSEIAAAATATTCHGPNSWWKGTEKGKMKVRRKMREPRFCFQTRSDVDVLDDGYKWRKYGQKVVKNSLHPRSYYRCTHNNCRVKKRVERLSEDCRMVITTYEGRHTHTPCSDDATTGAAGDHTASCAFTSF

What follows are sequences tested against OsWRKY34 (Oryza sativa, UniProt Q0JBA9 1-250) (assay: protein-binding microarray (RPBM); PBS, 2% BSA, 51.3 ng/ul salmon testes DNA, 50 uM zinc acetate, 200 nM TF, 25 C, 1 h; high values mean tight binding). Settings: protein: recombinant; tags: N-terminal polyhistidine and DsRed monomer fusion (pET32a); label: CyDye5-dUTP incorporated in the synthesized complementary strand; 3' TTTTT single-stranded linker to array surface; dsDNA, one strand shown.
Summary of the method: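 Binding signal here means per-feature fluorescence intensity in arbitrary units. The values were read on an Axon 4000B scanner after a custom Agilent array, double-stranded by primer extension with Cy5-dUTP, was incubated with 200 nM protein at 25 °C for 1 h in PBS with 2% BSA, salmon testes DNA and 50 µM zinc acetate, then washed. The proteins were transcription factors with an N-terminal polyhistidine tag and DsRed, expressed in E. coli BL21-CodonPlus and purified on Ni–NTA.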

Sequence | binding signal
CTCATTAGCTGTTTCTTTCTTATAATTTTAAGCTACACAGCGGAGTCACCTAGTGCAG | 9500 fluorescence intensity (a.u.)
ACAAACTCCAAACCCATTACTCTCCTCACGACATTCTCGCCGGAGTCACCTAGTGCAG | 8670 fluorescence intensity (a.u.)
GTGGGTCCTACTATTTTTTATTTTCTTGTTTGATTGACATCGGAGTCACCTAGTGCAG | 8040 fluorescence intensity (a.u.)
GTTATGAGCACATTTGTCTTGCTTTGGCTGACCTTCCATTCGGAGTCACCTAGTGCAG | 8510 fluorescence intensity (a.u.)
CATCCGATCGCTAAATCCAACGGCTCATATCGTCTTTCCCCGGAGTCACCTAGTGCAG | 8630 fluorescence intensity (a.u.)
CCTTGGCCACCCAGTTTACACTATATTTTATGTCGACGACCGGAGTCACCTAGTGCAG | 10000 fluorescence intensity (a.u.)
GCCCACACTCCAACCTCCCAATTCCTCCATGAACGTAGCCCGGAGTCACCTAGTGCAG | 8500 fluorescence intensity (a.u.)
CCACTTCTATTTTTAACCTGGCTGCCACATCAGCACATTTCGGAGTCACCTAGTGCAG | 8960 fluorescence intensity (a.u.)
TTTAGCACATGTTTAACCGTTCGTCTTATTCAAAAAATTTCGGAGTCACCTAGTGCAG | 11100 fluorescence intensity (a.u.)
CATCAGTTGGCGATTCCCGCTGTATCCTAGAATCTGCTGACGGAGTCACCTAGTGCAG | 65000 fluorescence intensity (a.u.)
CTCCCTTGTTGCCGTTGATGTGTCCCGCACCGATGTCTCACGGAGTCACCTAGTGCAG | 9510 fluorescence intensity (a.u.)
CTACTCGGTCTCTCTCTCTCTCTCTCTCGCCGCCGACTCGCGGAGTCACCTAGTGCAG | 8420 fluorescence intensity (a.u.)
CCAATCTCCACCGCCCGCTTATTTCCTTATCTCTTCCGCACGGAGTCACCTAGTGCAG | 8330 fluorescence intensity (a.u.)
CTCTTATATTTTGGGACGAGTATCTCCTATCATTCAATTCCGGAGTCACCTAGTGCAG | 9960 fluorescence intensity (a.u.)
ATCTTCCGTCGTCTCTTTTACCACAATCTCGTCCATACCTCGGAGTCACCTAGTGCAG | 8570 fluorescence intensity (a.u.)
CTTCTAGTTATTCTCTGTCTTGGTCAATTCTAGCTTGGCCCGGAGTCACCTAGTGCAG | 8360 fluorescence intensity (a.u.)
CACCGCCATCAATGACTCTGGCCTCTCCAACTCACTAACACGGAGTCACCTAGTGCAG | 8830 fluorescence intensity (a.u.)
GCATTGTTCTATTTTCTCAAAAACAAGGGTGGGCACGCAACGGAGTCACCTAGTGCAG | 9830 fluorescence intensity (a.u.)
TGCATCATTTTTTTACTTTTCTTTTTGACTACAAGTATTCCGGAGTCACCTAGTGCAG | 8480 fluorescence intensity (a.u.)
CGGTGGTGGTGGTGGTGCCTTGGCTAGTTTGGCCGGCGCGCGGAGTCACCTAGTGCAG | 14300 fluorescence intensity (a.u.)
GAATGGGGATTTCTTTTATATAGATCTGTGCATGTCTGTTCGGAGTCACCTAGTGCAG | 8520 fluorescence intensity (a.u.)

Reformatted as labelled records: entries from further up
CTACTCGGTCTCTCTCTCTCTCTCTCTCGCCGCCGACTCGCGGAGTCACCTAGTGCAG
  binding signal = 8420 fluorescence intensity (a.u.)
CCAATCTCCACCGCCCGCTTATTTCCTTATCTCTTCCGCACGGAGTCACCTAGTGCAG
  binding signal = 8330 fluorescence intensity (a.u.)
CTCTTATATTTTGGGACGAGTATCTCCTATCATTCAATTCCGGAGTCACCTAGTGCAG
  binding signal = 9960 fluorescence intensity (a.u.)
ATCTTCCGTCGTCTCTTTTACCACAATCTCGTCCATACCTCGGAGTCACCTAGTGCAG
  binding signal = 8570 fluorescence intensity (a.u.)

Additional results:

Sequence | binding signal
CATGGTTCTCATTTACTGCTCCATTATTCGTTGTATGCATCGGAGTCACCTAGTGCAG | 14300 fluorescence intensity (a.u.)
TAGCTTTGGTACGATCTGCAAGTTGCAACTTCTTCATTGTCGGAGTCACCTAGTGCAG | 10900 fluorescence intensity (a.u.)
TCCACCAACCAACCGCCGCCCCACCTCGCCGCCCGCCGCCCGGAGTCACCTAGTGCAG | 8890 fluorescence intensity (a.u.)
AGCTATGCATTTCTTTTTTTTCGTTGTCTTCATGTTTTTTCGGAGTCACCTAGTGCAG | 11200 fluorescence intensity (a.u.)
CTCCTCCGCTACTACCAGTCTACCACCACCACCACCTAGACGGAGTCACCTAGTGCAG | 9390 fluorescence intensity (a.u.)
CGTGATATCACCCTCATTAACTTTTCTTTGGCCCTTTTTCCGGAGTCACCTAGTGCAG | 13100 fluorescence intensity (a.u.)
TTGTATTGTATCCTATCCTGCATGCAGAGAGAGATGGTCGCGGAGTCACCTAGTGCAG | 8290 fluorescence intensity (a.u.)
GTGGTGGTTGAAGTTTTCTATGGCTTTTCTTGACGTCTCGCGGAGTCACCTAGTGCAG | 9150 fluorescence intensity (a.u.)
GTTGGCGGCGCCTTGCCGGCTTTTGCTGGACTTCTGAAAGCGGAGTCACCTAGTGCAG | 8040 fluorescence intensity (a.u.)
ATATTCAAACTTCAGTATGTTTACAGTGTTCTCGTTACATCGGAGTCACCTAGTGCAG | 8200 fluorescence intensity (a.u.)
CCACTGCAACGACCTCCTGCATTCCTTGGCGGCGCCGACCCGGAGTCACCTAGTGCAG | 9030 fluorescence intensity (a.u.)
TGCACCTTGTTTATCCGCCTACCGTCCTACACTTTTTATACGGAGTCACCTAGTGCAG | 10700 fluorescence intensity (a.u.)
CCTATGGAATGCCTCTTCCTATGTAAATTTTGGAGGAAATCGGAGTCACCTAGTGCAG | 13100 fluorescence intensity (a.u.)
AAACACACTGACACGCATTCGGCCCGTTCCCTCGATGCGTCGGAGTCACCTAGTGCAG | 8520 fluorescence intensity (a.u.)
GGTGGCGGTTGCGGGTGGAGGGCCGCGGCGGTGCGACGAACGGAGTCACCTAGTGCAG | 8480 fluorescence intensity (a.u.)
GGGGCGCATGGGCGGGTGAGGGGCAGCAGTTGCGGGACGTCGGAGTCACCTAGTGCAG | 8420 fluorescence intensity (a.u.)
GTGGCGCTCGCCATACCTCGCGCCGCCCGCTGACCAACCCCGGAGTCACCTAGTGCAG | 8520 fluorescence intensity (a.u.)
GTCTTCACATCATATCATACGTTCTAAAAACTGACCTAAACGGAGTCACCTAGTGCAG | 8470 fluorescence intensity (a.u.)
TGTTTGTTAGGTTTACCCGAGCTCTTAAAATTTTTTGAATCGGAGTCACCTAGTGCAG | 8080 fluorescence intensity (a.u.)
GTGTTTGTCATTTTCCTCGTTGCTCTGAACTTCTACGTGTCGGAGTCACCTAGTGCAG | 9350 fluorescence intensity (a.u.)
TAGGGGTAGGGTTTGCGTGCGCGTGCATTGTGAGTGTCTGCGGAGTCACCTAGTGCAG | 11000 fluorescence intensity (a.u.)

Sequence | binding signal
CTGCTGCTCTTTGTTGGCGTTGCTTGCTGCTGACCAAGCTCGGAGTCACCTAGTGCAG | 11500 fluorescence intensity (a.u.)
AAAAACCTCGGCTCTCGTCTGCTCGATCGAACAAGTTCCTCGGAGTCACCTAGTGCAG | 8610 fluorescence intensity (a.u.)
GCTTCCATTAGTGTACTTCCCCAACAAGCTCTTATTTGCCCGGAGTCACCTAGTGCAG | 10100 fluorescence intensity (a.u.)
ACGGTGTGGGGAGGTAAATTGATTCGCTGTGCTCGATTTTCGGAGTCACCTAGTGCAG | 9080 fluorescence intensity (a.u.)
GTTGACTTTAACCGTGCTGTGCATCCCATTAATTGGATTACGGAGTCACCTAGTGCAG | 8840 fluorescence intensity (a.u.)
TTACTTCTTTGAGCCTCTCAGATCTGTTCTTTGTTTGATTCGGAGTCACCTAGTGCAG | 11600 fluorescence intensity (a.u.)
TACCAACTGCGCTTTGCTCTACACTTACTCCTATCAAAGCCGGAGTCACCTAGTGCAG | 9580 fluorescence intensity (a.u.)
ACACATCTCCTCGTCGTGCCATCGTGTGACGACGTCTCGTCGGAGTCACCTAGTGCAG | 10100 fluorescence intensity (a.u.)
ATATTGATCTTGCTGCATTTGATATGCTCAGGCTGTTTTACGGAGTCACCTAGTGCAG | 8790 fluorescence intensity (a.u.)
ATACTTCTCTCAAGATATCTCTCTGTTCATCCACGCTACCCGGAGTCACCTAGTGCAG | 8680 fluorescence intensity (a.u.)
TTTAATTATTTTGATTATTTTATCATGACTTATCGGTTGTCGGAGTCACCTAGTGCAG | 11100 fluorescence intensity (a.u.)
CTTGACACCCACCGACCTACCCCAAGGGCCGAACCAACCACGGAGTCACCTAGTGCAG | 8050 fluorescence intensity (a.u.)
GTCGGGTGTGTTGAGCTCGGTGGTGGCGGCAGTGAGAAATCGGAGTCACCTAGTGCAG | 11000 fluorescence intensity (a.u.)
AAATTTGTCTGACAAATGTATAGGTGGTCCCTTGCGGTTTCGGAGTCACCTAGTGCAG | 8800 fluorescence intensity (a.u.)
CTTGTTTTAGTTTGAATTTTCACTTCTCTATCTATTACATCGGAGTCACCTAGTGCAG | 9780 fluorescence intensity (a.u.)
GCGTCTTTTTCCAACCTTGTGGATGCTTTCGATCATGCATCGGAGTCACCTAGTGCAG | 11600 fluorescence intensity (a.u.)
TCTTGTTCTAGTTTCCATATGGCTGAAGACTGAAGTAGCACGGAGTCACCTAGTGCAG | 9170 fluorescence intensity (a.u.)
CTGCTGAATATTGGTCTCCTTACTGAGGGAGGGGTAACAACGGAGTCACCTAGTGCAG | 9900 fluorescence intensity (a.u.)
TCGCTCTCGTTGGATTCGGTTTGGTTTGGTTTGGGCCATGCGGAGTCACCTAGTGCAG | 18700 fluorescence intensity (a.u.)
TTCTGGTTTTGTTGTGTGTCATCACCAGTACATTTTGTTGCGGAGTCACCTAGTGCAG | 8560 fluorescence intensity (a.u.)
TCCTGCCTCCGCCTTTCTCGCACGCAGGCCGCTTGAGCTCCGGAGTCACCTAGTGCAG | 8120 fluorescence intensity (a.u.)

Sequence | binding signal
ATATATTTAAACTCATGGGCTCACATACTTTTTCCGTTCCCGGAGTCACCTAGTGCAG | 9880 fluorescence intensity (a.u.)
GTTCTACCGCGCACTCCGCCGCCGCTGATTTTGTTTGACACGGAGTCACCTAGTGCAG | 10200 fluorescence intensity (a.u.)
CCTGCACCTGGGGTTGGGTCGAGTAGGGCAAACGATCGATCGGAGTCACCTAGTGCAG | 8950 fluorescence intensity (a.u.)
AATCCTAATCTAGTTCTATTTTTCTTTTTTCTTATTTTTTCGGAGTCACCTAGTGCAG | 9630 fluorescence intensity (a.u.)
TTCGTATTTGTTTCCGTATCCGGATTATTCATATTCGTTTCGGAGTCACCTAGTGCAG | 8050 fluorescence intensity (a.u.)
CTCTCCATAGAGGCTGTCTGTCTGTCGTTTCTCTCACTAGCGGAGTCACCTAGTGCAG | 9070 fluorescence intensity (a.u.)
GCGCGATCCATCACCCGGACCAGCTTCACACCCGCGTAAACGGAGTCACCTAGTGCAG | 11600 fluorescence intensity (a.u.)
CCCACCAGTCAGTGTCAGTGGACTGGGCCGTTGACCAGACCGGAGTCACCTAGTGCAG | 14000 fluorescence intensity (a.u.)
GGCATCTCTTTCTTTCGCGTTTTCTCTTCCGCCAGATAGGCGGAGTCACCTAGTGCAG | 12300 fluorescence intensity (a.u.)
CATCCAGCACCATCCAGGATCTCCCTTGTAATTCCTAAATCGGAGTCACCTAGTGCAG | 10300 fluorescence intensity (a.u.)
ACACTACGGTCTATATATGGGCCATTCCTAGCAGGTGCACCGGAGTCACCTAGTGCAG | 8600 fluorescence intensity (a.u.)
AGCATGCCGTTCTCCGGTCAAACCTGCCGTCGCCGCCGTCCGGAGTCACCTAGTGCAG | 9380 fluorescence intensity (a.u.)
ATGTAGATCTTGTAGGTCTCGACGCTCTTCTTCGCCTTCTCGGAGTCACCTAGTGCAG | 9000 fluorescence intensity (a.u.)
ACGCATTCATGACACGTACCTGCACTAGAATTCCCCTTCCCGGAGTCACCTAGTGCAG | 8170 fluorescence intensity (a.u.)
ACTATCTTAGCCATTCCAACGCCGTCTTTCCTCGGTCCTCCGGAGTCACCTAGTGCAG | 12500 fluorescence intensity (a.u.)
TAGTTTGTTTCATTTTTCGCACGCACGCTTCTCGAACTACCGGAGTCACCTAGTGCAG | 8220 fluorescence intensity (a.u.)
TTTTGTTTCTTTTCTTACCCTAATCTCTCTCACTGGCTCGCGGAGTCACCTAGTGCAG | 8460 fluorescence intensity (a.u.)
ATACCTATCGATTCCGTATTCTCCTCTGTTCCGCTCTCTCCGGAGTCACCTAGTGCAG | 10200 fluorescence intensity (a.u.)
TATCATACTGTTTCTTTTCTATGGATAGAACATTTTATTCCGGAGTCACCTAGTGCAG | 8470 fluorescence intensity (a.u.)
TTTACGCTGTCTCTCTTCTCGTTAACCTGCTCTACCAATCCGGAGTCACCTAGTGCAG | 8310 fluorescence intensity (a.u.)
ACTCCACATGTATCAGTTATAGCTCTGTACTTTAGAAAGACGGAGTCACCTAGTGCAG | 9100 fluorescence intensity (a.u.)
